# Results as given in the supplement of paper PMC4604168 (melanoma cell lines).
# This is one part of the list. Many values rest on one well or one pass, so single values are uncertain.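 Cells were imaged in 1,536-well plates, and nuclei stained with an antibody against cleaved PARP were counted against all DNA-stained nuclei to give the apoptosis fraction. Screening doses were chosen to leave most cells alive, and resting and induced cleaved-PARP levels differ strongly between cell lines.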
# Tested on: WM1716
# Assay: cleaved PARP positive nuclei fraction relative to DMSO control; melanoma cells; higher = more apoptosis
# Conditions: library dose: low library concentration; 72 h
row,Compound,cleaved PARP positive nuclei fraction
1,"O=C(Nc1cc(C(F)(F)F)cc(C(F)(F)F)c1)c1cc(Cl)ccc1O + COc1ccc(C2=N[C@@H](c3ccc(Cl)cc3)[C@@H](c3ccc(Cl)cc3)N2C(=O)N2CCNC(=O)C2)c(OC(C)C)c1 [Nutlin-3] (first compound 0.016 µM, partner dose 0.1 µM)",290%
2,"O=C(/C=C/c1cccnc1)NCCCCC1CCN(C(=O)c2ccccc2)CC1 + COc1ccc(Cl)c(Nc2nc3ccccc3nc2NS(=O)(=O)c2cccc(NC(=O)C(C)(C)N)c2)c1 [XL147] (first compound 0.01 µM, partner dose 0.8 µM)",99.4%
3,"N#CC[C@H](C1CCCC1)n1cc(-c2ncnc3[nH]ccc23)cn1 [ruxolitinib] + CO[C@@H]1[C@H](N(C)C(=O)c2ccccc2)C[C@H]2O[C@]1(C)n1c3ccccc3c3c4c(c5c6ccccc6n2c5c31)C(=O)NC4 [Midostaurin] (first compound 1 µM, partner dose 0.08 µM)",158%
4,"Cc1cc(Nc2cc(N3CCN(C)CC3)nc(Sc3ccc(NC(=O)C4CC4)cc3)n2)n[nH]1 [Tozasertib] + NC1(c2ccc(-c3nc4ccn5c(=O)[nH]nc5c4cc3-c3ccccc3)cc2)CCC1 [MK2206] (first compound 0.006 µM, partner dose 0.4 µM)",173%
5,"Cc1ccc(Nc2nccc(N(C)c3ccc4c(C)n(C)nc4c3)n2)cc1S(N)(=O)=O [Pazopanib] + Cc1cc([N+](=O)[O-])ccc1NS(=O)(=O)c1cc(Cl)ccc1Cl [FH535] (first compound 0.4 µM, partner dose 1 µM)",113%
6,"O=C(Nc1cc(C(F)(F)F)cc(C(F)(F)F)c1)c1cc(Cl)ccc1O + CC(C)CCN1c2nc(Nc3cc(F)c(O)c(F)c3)ncc2N(C)C(=O)C1C [BID1870] (first compound 0.016 µM, partner dose 0.2 µM)",141%
7,"N#CC[C@H](C1CCCC1)n1cc(-c2ncnc3[nH]ccc23)cn1 [ruxolitinib] + CCCS(=O)(=O)Nc1ccc(F)c(C(=O)c2c[nH]c3ncc(Cl)cc23)c1F [PLX4720] (first compound 1 µM, partner dose 0.08 µM)",66.8%
8,"Cc1cn(-c2cc(NC(=O)c3ccc(C)c(Nc4nccc(-c5cccnc5)n4)c3)cc(C(F)(F)F)c2)cn1 [nilotinib] + Nc1ncn([C@H]2C[C@H](O)[C@@H](CO)O2)c(=O)n1 [decitabine] (first compound 0.2 µM, partner dose 0.1 µM)",153%
9,"O=c1[nH]nc(Sc2ncc([N+](=O)[O-])s2)n1-c1ccc2c(c1)OCCO2 + OCCn1cc(-c2cnc3nnn(Cc4ccc5ncccc5c4)c3n2)cn1 [PF04217903] (first compound 0.2 µM, partner dose 1 µM)",60.3%
10,"Cc1ccc(Nc2nccc(N(C)c3ccc4c(C)n(C)nc4c3)n2)cc1S(N)(=O)=O [Pazopanib] + N#Cc1c(O)c2c(-c3ccc(-c4ccccc4O)cc3)csc2[nH]c1=O [A769662] (first compound 0.4 µM, partner dose 2 µM)",115%
11,"Cc1ccc(Nc2nccc(N(C)c3ccc4c(C)n(C)nc4c3)n2)cc1S(N)(=O)=O [Pazopanib] + CCc1ccc(CCOc2ccc(CC3SC(=O)NC3=O)cc2)nc1 [pioglitazone] (first compound 0.4 µM, partner dose 2 µM)",82.4%

# Tested on: WM1745
# Assay: as above
# Conditions: library dose: low library concentration; 72 h
row,Compound,cleaved PARP positive nuclei fraction
1,"CC[C@]1(O)C[C@H]2CN(CCc3c([nH]c4ccccc34)[C@@](C(=O)OC)(c3cc4c(cc3OC)N(C=O)[C@H]3[C@@](O)(C(=O)OC)[C@H](OC(C)=O)[C@]5(CC)C=CCN6CC[C@]43[C@@H]65)C2)C1 [vincristine] + O=C(Nc1ccccc1)c1cc([N+](=O)[O-])ccc1Cl [GW9662] (first compound 0.0001 µM, partner dose 2 µM)",97.8%
2,"O=C(Nc1cc(C(F)(F)F)cc(C(F)(F)F)c1)c1cc(Cl)ccc1O + Cn1cnc2c(F)c(Nc3ccc(Br)cc3Cl)c(C(=O)NOCCO)cc21 [selumetinib] (first compound 0.016 µM, partner dose 0.015 µM)",83.9%
3,"O=C(/C=C/c1cccnc1)NCCCCC1CCN(C(=O)c2ccccc2)CC1 + COc1cc2c(Oc3ccc4[nH]c(C)cc4c3F)ncnc2cc1OCCCN1CCCC1 [cediranib] (first compound 0.01 µM, partner dose 0.4 µM)",95%
4,"CCCCCCCCCCCCCCCCCCOP(=O)([O-])OC1CC[N+](C)(C)CC1 [Perifosine] + CNC(=O)c1cc(Oc2ccc(NC(=O)Nc3ccc(Cl)c(C(F)(F)F)c3)cc2)ccn1 [sorafenib] (first compound 0.4 µM, partner dose 0.4 µM)",103%
5,"CCCCCCCCCCCCCCCCCCOP(=O)([O-])OC1CC[N+](C)(C)CC1 [Perifosine] + OCCn1cc(-c2cnc3nnn(Cc4ccc5ncccc5c4)c3n2)cn1 [PF04217903] (first compound 0.4 µM, partner dose 1 µM)",132%
6,"CC[C@]1(O)C[C@H]2CN(CCc3c([nH]c4ccccc34)[C@@](C(=O)OC)(c3cc4c(cc3OC)N(C=O)[C@H]3[C@@](O)(C(=O)OC)[C@H](OC(C)=O)[C@]5(CC)C=CCN6CC[C@]43[C@@H]65)C2)C1 [vincristine] + c1cc(-c2cnn3cc(-c4ccc(OCCN5CCCCC5)cc4)cnc23)ccn1 [Dorsomorphin] (first compound 0.0001 µM, partner dose 0.4 µM)",124%
7,"O=C(Nc1cc(C(F)(F)F)cc(C(F)(F)F)c1)c1cc(Cl)ccc1O + CS(=O)(=O)c1ccc(C(=O)Nc2ccc(Cl)c(-c3ccccn3)c2)c(Cl)c1 [vismodegib] (first compound 0.016 µM, partner dose 1 µM)",81.3%
8,"N#CC[C@H](C1CCCC1)n1cc(-c2ncnc3[nH]ccc23)cn1 [ruxolitinib] + CN1CCN(c2ccc3nc(-c4c(N)c5c(F)cccc5[nH]c4=O)[nH]c3c2)CC1 [Dovitinib] (first compound 1 µM, partner dose 0.1 µM)",94.2%
9,"CCCCCCCCCCCCCCCCCCOP(=O)([O-])OC1CC[N+](C)(C)CC1 [Perifosine] + Nc1ncn([C@H]2C[C@H](O)[C@@H](CO)O2)c(=O)n1 [decitabine] (first compound 0.4 µM, partner dose 0.1 µM)",96.2%
10,"O=c1[nH]nc(Sc2ncc([N+](=O)[O-])s2)n1-c1ccc2c(c1)OCCO2 + O=S(=O)(c1ccccc1)N(CC(F)(F)F)c1ccc(C(O)(C(F)(F)F)C(F)(F)F)cc1 [T0901317] (first compound 0.2 µM, partner dose 1.4 µM)",102%
11,"Cc1cc(Nc2cc(N3CCN(C)CC3)nc(Sc3ccc(NC(=O)C4CC4)cc3)n2)n[nH]1 [Tozasertib] + N#Cc1c(O)c2c(-c3ccc(-c4ccccc4O)cc3)csc2[nH]c1=O [A769662] (first compound 0.006 µM, partner dose 2 µM)",117%
12,"Cc1cn(-c2cc(NC(=O)c3ccc(C)c(Nc4nccc(-c5cccnc5)n4)c3)cc(C(F)(F)F)c2)cn1 [nilotinib] + CCCCCCCCCCCC1=C(O)C(=O)C=C(O)C1=O [Embelin] (first compound 0.2 µM, partner dose 1.2 µM)",91.8%
13,"O=C(Nc1cc(C(F)(F)F)cc(C(F)(F)F)c1)c1cc(Cl)ccc1O + NC(=O)c1ccc(N(C(N)=O)c2c(F)cccc2F)nc1-c1ccc(F)cc1F [VX702] (first compound 0.016 µM, partner dose 0.4 µM)",95%
14,"CC[C@]1(O)C[C@H]2CN(CCc3c([nH]c4ccccc34)[C@@](C(=O)OC)(c3cc4c(cc3OC)N(C=O)[C@H]3[C@@](O)(C(=O)OC)[C@H](OC(C)=O)[C@]5(CC)C=CCN6CC[C@]43[C@@H]65)C2)C1 [vincristine] + COc1cc2ncnc(Nc3ccc(Oc4ccccc4)cc3)c2cc1OC [SrcI1] (first compound 0.0001 µM, partner dose 2 µM)",125%
15,"Cc1cn(-c2cc(NC(=O)c3ccc(C)c(Nc4nccc(-c5cccnc5)n4)c3)cc(C(F)(F)F)c2)cn1 [nilotinib] + CN1CCN(c2ccc3nc(-c4c(N)c5c(F)cccc5[nH]c4=O)[nH]c3c2)CC1 [Dovitinib] (first compound 0.2 µM, partner dose 0.1 µM)",38.6%
16,"Cc1cc(Nc2cc(N3CCN(C)CC3)nc(Sc3ccc(NC(=O)C4CC4)cc3)n2)n[nH]1 [Tozasertib] + O=c1[nH]nc(Sc2ncc([N+](=O)[O-])s2)n1-c1ccc2c(c1)OCCO2 [BI78D3] (first compound 0.006 µM, partner dose 0.2 µM)",97.7%
17,"COc1cc([C@@H]2c3cc4c(cc3[C@@H](O[C@@H]3O[C@@H]5CO[C@@H](C)O[C@H]5[C@H](O)[C@H]3O)[C@H]3COC(=O)[C@H]23)OCO4)cc(OC)c1O [etoposide] + C=C(c1ccc(C(=O)O)cc1)c1cc2c(cc1C)C(C)(C)CCC2(C)C [Bexarotene] (first compound 0.02 µM, partner dose 2 µM)",100%
18,"N#CC[C@H](C1CCCC1)n1cc(-c2ncnc3[nH]ccc23)cn1 [ruxolitinib] + Clc1ccc(Nc2nnc(Cc3ccncc3)c3ccccc23)cc1 [vatalanib] (first compound 1 µM, partner dose 2 µM)",106%

# As a working copy, some entries already given:
row,Compound,cleaved PARP positive nuclei fraction
1,"CC[C@]1(O)C[C@H]2CN(CCc3c([nH]c4ccccc34)[C@@](C(=O)OC)(c3cc4c(cc3OC)N(C=O)[C@H]3[C@@](O)(C(=O)OC)[C@H](OC(C)=O)[C@]5(CC)C=CCN6CC[C@]43[C@@H]65)C2)C1 [vincristine] + O=C(Nc1ccccc1)c1cc([N+](=O)[O-])ccc1Cl [GW9662] (first compound 0.0001 µM, partner dose 2 µM)",97.8%
2,"O=C(Nc1cc(C(F)(F)F)cc(C(F)(F)F)c1)c1cc(Cl)ccc1O + Cn1cnc2c(F)c(Nc3ccc(Br)cc3Cl)c(C(=O)NOCCO)cc21 [selumetinib] (first compound 0.016 µM, partner dose 0.015 µM)",83.9%
